{"source": "PubChem BioAssay AID1508600", "about": "(Functional Genomics Laboratory (NCATS/FGL), 2020)", "note": "The whole screen tested about 53,000 sequences, of which about 3,700 (7%) were called active.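 How the source made its calls: active means gene knockdowns whose robust z-score for IL-1 alpha signal is at least 2 or at most -2, so actives lie on both sides; inactive means the rest.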 Some of the results follow.", "data": [{"assay": "Components of the Cytosolic LPS Sensing Pathway: Gene Identification via Genome-wide siRNA Screen;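 further: robust z of the log signal after scaling to non-targeting control siRNA wells of the plate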", "conditions": "RAW264.7 macrophages, IL-1a HTRF, actives lie on both sides, screened at 100 nM (by protocol), cells primed 5 h with Pam3CSK4 first", "outline": "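Three distinct siRNAs per gene were tested singly at 100 nM in RAW264.7 macrophages. Following Pam3CSK4 priming and 24 hour LipidA transfection, IL-1a secretion was read by HTRF.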", "values": [{"sequence": "CCGUAGUAUCCACUGAUUGTT against Olfr1322", "z-score": "inactive: -0.34"}, {"sequence": "GGGAUGAUCUUAUAUGCUUTT against AA792892", "z-score": "inactive: 1.42"}, {"sequence": "GGGCAUCGCUUUGAGAGUATT against Srprb", "z-score": "inactive: -0.00327"}, {"sequence": "GGUUUUUAGCCUGAGUGAGTT against Olfr688", "z-score": "inactive: -1.8"}, {"sequence": "GGCUCUGUGCUUAAGAUGATT against Oaf", "z-score": "inactive: 0.113"}, {"sequence": "GCGUCUUAUAUGGGUGGCUTT against Olfr1016", "z-score": "inactive: 0.43"}, {"sequence": "GGGAUCCCACCUGAAAAAATT against Poc1a", "z-score": "inactive: -0.162"}, {"sequence": "GGAAGUUGUGGAAGAAGACTT against Syf2", "z-score": "inactive: 0.856"}, {"sequence": "GGAUUGGAACUAUUCUGUATT against Syvn1", "z-score": "inactive: 0.839"}, {"sequence": "GGGAAAUCUAUGGUGCUGUTT against Mpz", "z-score": "inactive: -0.665"}, {"sequence": "CCAACGACAUGUACGACCUTT against Rest", "z-score": "inactive: -0.54"}, {"sequence": "GGAUUUAAGAAUGAAUGCCTT against Kcnip4", "z-score": "inactive: -0.579"}, {"sequence": "GGAUAUGAUGUCAAACCCUTT against Ubqln4", "z-score": "inactive: -1.77"}, {"sequence": "GGACUCAGACAAGAUCUGCTT against Ctdsp1", "z-score": "inactive: -1.38"}, {"sequence": "GCAAACGUACCAUCUACACTT against Uckl1", "z-score": "inactive: 1.99"}, {"sequence": "GCUAUGACCAACCUAGAGATT against Sox5", "z-score": "inactive: -0.401"}, {"sequence": "GGUCACCGUCAAGUACGACTT against Ppp1r14b", "z-score": "inactive: -0.39"}, {"sequence": "CCCAGGCUAUUUCAACAAUTT against Arhgef11", "z-score": "inactive: -1.24"}, {"sequence": "GCUCAACCUAACUUUGUGGTT against Ccdc3", "z-score": "inactive: 0.421"}, {"sequence": "GGUACCAAUUGAAGAUAUATT against Ncoa7", "z-score": "active: 2.2"}, {"sequence": "GCAAGAAGGUGAAGUGCAGTT against Fxyd7", "z-score": "inactive: 0.322"}, {"sequence": "CCAGCAUAUUGGAACUACUTT against Olfr986", "z-score": "inactive: -1.15"}, {"sequence": "CCUCUACCCAGAUUAUGCATT against Grik1", "z-score": "inactive: 0.559"}, {"sequence": "CCCAGUUGACAGGAGACCATT against Hps6", "z-score": "inactive: 1.13"}, {"sequence": "GCAUAUCACAUCCGAAUACTT against Per1", "z-score": "inactive: -0.223"}, {"sequence": "GCAGUGUCAAAAAGAGCCATT against G930045G22Rik", "z-score": "inactive: -1.69"}, {"sequence": "GCAAACCUUCGGUCUUGCCTT against Cd5l", "z-score": "inactive: -0.364"}, {"sequence": "GGUCCUGAUGAAGUUGUAGTT against Dcun1d5", "z-score": "inactive: 0.365"}, {"sequence": "GGGUAUGAGUGCAGACUAUTT against Zcchc9", "z-score": "inactive: 0.803"}, {"sequence": "GCCUCGUGAAUAAUUGAAATT against Ddt", "z-score": "inactive: 0.967"}, {"sequence": "CGUGGAAUGAAGAUUGUCCTT against Hsd17b12", "z-score": "inactive: 0.284"}, {"sequence": "GGCUCAUGUAAGAUAAUUATT against Kcns3", "z-score": "inactive: -1.03"}, {"sequence": "GGUUCACCACCUGCUACAATT against Pmf1", "z-score": "inactive: -0.547"}, {"sequence": "CGUAGAUGCUUCCAAGAUGTT against Ube2g2", "z-score": "inactive: -1"}, {"sequence": "GGCAAACAAUAAAGUGUGGTT against Bpgm", "z-score": "inactive: 0.897"}, {"sequence": "GGAUUUGAGUUACACUCAGTT against Mapk10", "z-score": "inactive: -1.27"}, {"sequence": "CCAGAGAUGACCGUCUUAATT against Hddc2", "z-score": "inactive: 0.204"}, {"sequence": "GGAGGCAGCUCCUAUGAUGTT against Rbm28", "z-score": "inactive: 0.378"}, {"sequence": "GGAAAUCGAGCAAAAGACATT against Cep104", "z-score": "inactive: 1.5"}, {"sequence": "GGGAUCAUGGAUUUCUUCCTT against Tmem119", "z-score": "inactive: 0.393"}, {"sequence": "GGUUCGACUGAAAACUUUCTT against Vamp2", "z-score": "inactive: 0.595"}, {"sequence": "CCUGCAUUUGCCGAACUUATT against Stk26", "z-score": "inactive: 0.428"}, {"sequence": "GGGAACCAGUACAAUUACATT against Glt8d1", "z-score": "inactive: -0.755"}, {"sequence": "GCUCUUACCACUGAUAGGATT against Ppcs", "z-score": "inactive: 0.049"}, {"sequence": "GCACUGUUCGUUUUUGUUUTT against Astn1", "z-score": "inactive: 0.275"}, {"sequence": "GAGAUCAACUUGGUGACGGTT against Cacng7", "z-score": "inactive: -0.446"}, {"sequence": "CGACCAGAAGUGGUAUGUCTT against Adra2a", "z-score": "inactive: -1.03"}, {"sequence": "GGAGCUGAAAAUUGUUACCTT against Tpm2", "z-score": "inactive: 0.134"}, {"sequence": "GGAUGGAAUUACAAGGGUUTT against Kif1b", "z-score": "inactive: 0.399"}, {"sequence": "GGUGUUAUUUUGAAGAAGATT against Arhgef10", "z-score": "inactive: -0.0372"}, {"sequence": "GGUCCUCUGGUUCAACAUUTT against Olfr638", "z-score": "inactive: -0.405"}, {"sequence": "GGAAAAGGUCAUUAUCAUUTT against Hsf3", "z-score": "active: -2.11"}, {"sequence": "GGUCACUGAACUGUUGCUGTT against Trpc7", "z-score": "inactive: 1.58"}, {"sequence": "GGAUAAGCAGUUCUCAAGCTT against Mef2a", "z-score": "inactive: -0.545"}, {"sequence": "GGAAGCAUCCAGUGCUAUUTT against Kremen2", "z-score": "inactive: 0.203"}, {"sequence": "GGAUAUGUUGGAGAAGGACTT against Mri1", "z-score": "inactive: -1.86"}, {"sequence": "GGCAACAGCACCAGAAGGATT against Ccl19", "z-score": "inactive: -0.843"}, {"sequence": "GGCAUAGUCGAGGAGAGUGTT against Ahcyl2", "z-score": "inactive: 1.04"}, {"sequence": "GGUUAUCCGUGGUAACCAUTT against Taok3", "z-score": "inactive: 0.78"}, {"sequence": "GGUAUUCUUCCUCCAUGGGTT against Olfr638", "z-score": "active: -3.22"}, {"sequence": "GGAGGAUCUUGAGUUGGAGTT against Nupr1l", "z-score": "active: 2.32"}, {"sequence": "GGAGAAAAGGUACGUUGUUTT against Rem1", "z-score": "inactive: -1.06"}, {"sequence": "GGCUCCUAUAUACUGAUCATT against Olfr1402", "z-score": "active: -2.65"}, {"sequence": "GGAUGUGUGCAUCACGGGUTT against 1700018B08Rik", "z-score": "inactive: -0.418"}, {"sequence": "GGUGUUUGGCUCACAAACCTT against Mmp23", "z-score": "inactive: -0.924"}, {"sequence": "GGAAAAAAUGGAGUUAUGUTT against Emc1", "z-score": "inactive: -0.792"}, {"sequence": "GGUGAAAUCUCUCUGGCCUTT against Panx3", "z-score": "inactive: 0.166"}, {"sequence": "GGCAUGGAAUCUGUUGUACTT against Olfr603", "z-score": "active: 2.45"}, {"sequence": "GGUAUACGAACAUGUUUAUTT against Lin7c", "z-score": "inactive: 0.0264"}, {"sequence": "GCAUGACAUGCAAAACUACTT against Abhd3", "z-score": "inactive: -0.765"}, {"sequence": "GGACAGCUUUGAUUUCAUUTT against Nkain4", "z-score": "inactive: 0.221"}, {"sequence": "GCCAGUUAGGGAACUACGATT against Ttc28", "z-score": "inactive: -0.0959"}, {"sequence": "GCAGUUAUCAGUCGUCAAUTT against Zfp334", "z-score": "inactive: -0.488"}, {"sequence": "GGCAACACCAUACAGUAUATT against Adh7", "z-score": "inactive: 1.61"}, {"sequence": "GGAAUCACUGGUAUUAUCGTT against Surf1", "z-score": "inactive: 0.805"}, {"sequence": "CCUGAUCAGAGUCUUAGUATT against Espl1", "z-score": "inactive: -1.25"}, {"sequence": "GGAGAAUAUAGCAGGAGGUTT against Odf3l1", "z-score": "inactive: 0.645"}, {"sequence": "CCUUUUUGUUGUCUCACUATT against Olfr116", "z-score": "inactive: -1.14"}, {"sequence": "GGGAAAGAAAACAAAGGAATT against Arhgap31", "z-score": "inactive: -0.196"}, {"sequence": "GCCUAACAUUGAUAUGUUGTT against Ephx3", "z-score": "inactive: -0.745"}, {"sequence": "GGAAGAAGCCACCUUUUUUTT against Cd2", "z-score": "inactive: -0.391"}, {"sequence": "GCUAAGGACUCAGCAAAACTT against Coq5", "z-score": "inactive: 0.733"}, {"sequence": "GCUUUAAAUAGAGACUAUCTT against Sox30", "z-score": "inactive: 1.15"}, {"sequence": "GGUCAUCCGAUGCUUUGUATT against 4930515G01Rik", "z-score": "inactive: -0.513"}, {"sequence": "GGCCUAAAGUAAUUUUGGGTT against Cep162", "z-score": "inactive: 0.441"}, {"sequence": "GGUCAAAAACUUGACUCGUTT against Gnl3l", "z-score": "inactive: 0.655"}, {"sequence": "GCUGUCACUUUGAAUCCCUTT against Nrg1", "z-score": "inactive: -0.988"}, {"sequence": "GGCUUACUACGACACAGACTT against Clk2", "z-score": "inactive: -0.192"}, {"sequence": "GGACUUAAAAGAGGAGAUCTT against 4933434E20Rik", "z-score": "active: 3.73"}, {"sequence": "CCGUCAUGAUCUUAAAAGATT against Slc30a8", "z-score": "inactive: -0.293"}, {"sequence": "UCUUCGGUCAACUCUAUGGTT against Olfr969", "z-score": "inactive: 0.183"}, {"sequence": "GGUAUAGCUUGGGCUAUAGTT against Olfr92", "z-score": "inactive: 0.494"}, {"sequence": "CCAUCAGAUUAUCUAUCUATT against Mapk11", "z-score": "inactive: 0.861"}, {"sequence": "GGCAUUAAUAUGUCUGACUTT against Tada1", "z-score": "inactive: -0.0627"}, {"sequence": "GCAAACGAAAAACAGUGACTT against Nsf", "z-score": "inactive: 0.86"}, {"sequence": "GCAUUAGGUAUGGUCAAGATT against Cdt1", "z-score": "inactive: 0.0757"}, {"sequence": "CCUCAGAGUCCCUAGAAAATT against Fam170a", "z-score": "inactive: -0.672"}, {"sequence": "CCAAAACCUCUACCGUUACTT against Cyp3a25", "z-score": "inactive: 0.246"}, {"sequence": "GGAAGACACAUCACCAAAATT against Chaf1a", "z-score": "inactive: 0.157"}, {"sequence": "CGGAAUUUGAACGUGUCUUTT against Cdk9", "z-score": "inactive: -1.53"}, {"sequence": "GGGCUACCAUAGUGACAAATT against Gja5", "z-score": "inactive: -1.79"}, {"sequence": "GUCCCUGAAAGAUGAAGAUTT against Tecr", "z-score": "inactive: 0.157"}, {"sequence": "GCUAAGUGACCUCUUUAACTT against Desi1", "z-score": "inactive: 0.419"}, {"sequence": "GGUAUGACCUCAUUCGGCATT against Fan1", "z-score": "inactive: -1.13"}, {"sequence": "GGAGCUGAUCCAGAACAGATT against Ncor2", "z-score": "inactive: 0.843"}, {"sequence": "GCCUAGGUUUGAUGAACUATT against Nlgn3", "z-score": "inactive: 1.3"}, {"sequence": "GGAGACCUUCAAGUACUUUTT against Dcakd", "z-score": "inactive: -0.047"}]}]}
